The assay deals with RECK without the C-terminal segment (RECKΔC), from Expi293F cells (human) (UniProt O95980). As to the kind of experiment: SEC-MALS; SEC-MALLS, Superdex 200 10/300 Increase, 20 mM Tris·HCl pH 7.4, 150 mM sodium chloride, 25 °C, in triplicate; both purified.

These are yes or no findings as the source states them, for the method shown.

B1: RECK without the C-terminal segment (RECKΔC), from Expi293F cells (domain or fragment, UniProt O95980 27-942)
chain: GLAPGSAGALCCNHSKDNQMCRDVCEQIFSSKSESRLKHLLQRAPDYCPETMVEIWNCMNSSLPGVFKKSDGWVGLGCCELAIALECRQACKQASSKNDISKVCRKEYENALFSCISRNEMGSVCCSYAGHHTNCREYCQAIFRTDSSPGPSQIKAVENYCASISPQLIHCVNNYTQSYPMRNPTDSLYCCDRAEDHACQNACKRILMSKKTEMEIVDGLIEGCKTQPLPQDPLWQCFLESSQSVHPGVTVHPPPSTGLDGAKLHCCSKANTSTCRELCTKLYSMSWGNTQSWQEFDRFCEYNPVEVSMLTCLADVREPCQLGCRNLTYCTNFNNRPTELFRSCNAQSDQGAMNDMKLWEKGSIKMPFINIPVLDIKKCQPEMWKAIACSLQIKPCHSKSRGSIICKSDCVEILKKCGDQNKFPEDHTAESICELLSPTDDLKNCIPLDTYLRPSTLGNIVEEVTHPCNPNPCPANELCEVNRKGCPSGDPCLPYFCVQGCKLGEASDFIVRQGTLIQVPSSAGEVGCYKICSCGQSGLLENCMEMHCIDLQKSCIVGGKRKSHGTSFSIDCNVCSCFAGNLVCSTRLCLSEHSSEDDRRTFTGLPCNCADQFVPVCGQNGRTYPSACIARCVGLQDHQFEFGSCMSKDPCNPNPCQKNQRCIPKPQVCLTTFDKFGCSQYECVPRQLACDQVQDPVCDTDHMEHNNLCTLYQRGKSLSYKGPCQPFCRATEPVCGHNGETYSSVCAAYSDRVAVDYYGDCQAVGVLSEHSSVAECASVKCPSLLAAGCKPIIPPGACCPLCAGMLRVLFDKEKLDTIAKVTNKKPITVLEILQKIRMHVSVPQCDVFGYFSIESEIVILIIPVDHYPKALQIEACNKEAEKIESLINSDSPTLASHVPLSALIISQVQVSSSVPSAIA
With B1, the binding entry is reported as “no binding”.

Source of the values: publication PMC7156630.
